# The supplement of paper PMC3334620
# The full ranking holds about 33,000 sequences; the median of “E-score (-0.5 to 0.5)” is about -0.015, and the highest 2% start at about 0.3. The list shows a part of the results.
# Molecular target: T1, Abf1 (UniProt P14164)
# T1 sequence: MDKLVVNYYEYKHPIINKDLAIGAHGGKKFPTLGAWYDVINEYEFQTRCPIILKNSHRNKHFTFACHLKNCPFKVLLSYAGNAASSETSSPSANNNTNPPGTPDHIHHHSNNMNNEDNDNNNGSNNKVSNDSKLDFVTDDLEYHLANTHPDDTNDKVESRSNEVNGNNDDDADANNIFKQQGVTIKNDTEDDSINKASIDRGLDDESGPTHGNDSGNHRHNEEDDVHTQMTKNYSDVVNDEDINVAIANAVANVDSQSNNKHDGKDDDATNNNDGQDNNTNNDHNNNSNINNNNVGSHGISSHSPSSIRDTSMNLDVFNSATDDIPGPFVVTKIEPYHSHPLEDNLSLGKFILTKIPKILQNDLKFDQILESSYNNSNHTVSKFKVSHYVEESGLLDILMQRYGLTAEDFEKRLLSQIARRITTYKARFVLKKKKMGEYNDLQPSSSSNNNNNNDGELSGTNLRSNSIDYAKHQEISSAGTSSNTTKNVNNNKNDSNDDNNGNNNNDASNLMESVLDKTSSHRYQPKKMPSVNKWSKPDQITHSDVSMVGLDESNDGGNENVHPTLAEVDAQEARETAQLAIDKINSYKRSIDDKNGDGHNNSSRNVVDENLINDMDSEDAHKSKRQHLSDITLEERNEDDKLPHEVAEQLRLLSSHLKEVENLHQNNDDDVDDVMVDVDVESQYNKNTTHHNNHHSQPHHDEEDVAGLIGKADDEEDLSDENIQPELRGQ
# Test: PBM E-score (8-mer binding enrichment) (E-score (-0.5 to 0.5)); higher = stronger / more preferred TF binding
# Conditions: protein concentration: 200 nM; construct: GST-full length
# Method in brief: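 Yeast transcription factors, full-length or as DNA-binding domains, were expressed with a GST tag using PURExpress in vitro transcription/translation. At about 100-200 nM they were applied to universal all-10-mer Agilent arrays, double-stranded by primer extension on fresh or once-stripped slides. Fluorescent anti-GST detected bound protein, and masliner normalised the scans. E-scores for ungapped eight-base words, pooled with reverse complements, came from the Universal PBM Analysis Suite.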
row,Sequence,PBM E-score
1,GCGTCTTA,-0.22
2,AATGATTA,0.273
3,AAGGATCC,-0.0653
4,CGTCTCGA,0.162
5,GGCGACAC,-0.0713
6,CCGGCAAG,-0.0614
7,GTCTATGA,0.0741
8,AAATATTG,0.164
9,AGGCTAAA,-0.111
10,CACCGTTA,0.163
11,GGCGGGTA,-0.179
12,AAGGATGT,-0.00902
13,AGTTCATC,-0.0817
14,CAAAACAA,-0.055
15,AGGCGCTA,0.0002
16,CCGCCCAC,-0.207
17,CTTGCACC,-0.216
18,ACGCACAG,0.0824
19,CACTCATG,-0.00099
20,GACATTCC,0.0184
21,CGAGGATC,0.101
22,AAGGGCTA,-0.0783
23,GGGTGACC,0.188
24,CCTGGGAG,-0.28
25,GCGATGCA,-0.181

# 5 successive entries out of the list so far, quoted:
row,Sequence,PBM E-score
21,CGAGGATC,0.101
22,AAGGGCTA,-0.0783
23,GGGTGACC,0.188
24,CCTGGGAG,-0.28
25,GCGATGCA,-0.181

# Later entries.

row,Sequence,PBM E-score
1,GAAGATCA,0.191
2,AACGTTAC,0.0595
3,AACTATAC,-0.0415
4,CCAGGCTC,-0.183
5,GCCAGGTA,-0.00336
6,AAGATCAC,0.325
7,CCGGGTTC,-0.167
8,GAGAGCCA,-0.14
9,TATCCGAA,0.0853
10,ACCGACAT,0.169
11,GTCGCGAA,0.188
12,ACCAAACC,0.0479
13,CGAACAGA,-0.0195
14,ATGTCCTG,-0.0816
15,AAAATCAT,0.266
16,AATGGAGT,-0.0717
17,ACCTAGCT,-0.202
18,GACCACCA,-0.132
19,AGGTCTTC,-0.0691
20,GATCTTTA,0.095
21,ATTGGATG,0.122
22,AAACCCGG,-0.0208
23,AATTTCTA,0.066
24,GTGCCCCA,-0.19
25,GGGCGATA,-0.15

row,Sequence,PBM E-score
1,CAGATAAA,0.0312
2,TCAGACAA,-0.23
3,AATCGCAG,0.0804
4,CGGTCTGA,-0.0851
5,AATATCGG,0.187
6,GTTGCCAA,-0.00135
7,ATTAGTCA,0.176
8,AAGCAGCA,-0.303
9,AGAAATGC,-0.0121
10,ACTATTAA,0.106
11,ATTCTGGA,0.0133
12,CGAGGAAC,0.108
13,GGCCATTA,0.00169
14,ACGCGATA,0.262
15,CAGTTGGC,-0.152
16,CACATACG,0.0892
17,CGTGTACC,0.159
18,GTCTGGCA,-0.192
19,AACTTAGG,-0.0107
20,ACGATAGG,0.233
21,AGAGTAAC,-0.0184
22,GACGTTAA,0.261
23,TCAACTAA,0.0884
24,CCGAAAAA,0.229
25,CCATACAA,0.0761

row,Sequence,PBM E-score
1,GTTCAGGA,-0.0751
2,AAAAATCA,0.219
3,GGGTGCGA,-0.103
4,TGTTCAAA,0.0757
5,AGGTGTCA,-0.0121
6,CTTAGGAA,0.0712
7,GAGACGAC,0.103
8,CAAATTAC,-0.0545
9,GCGTTAGC,-0.0286
10,CACTTTCC,-0.0647
11,ACCCGAAG,-0.225
12,ACCGTAGT,0.204
13,TGTGTAAA,0.031
14,ATCATAGG,-0.00462
15,ATGAATTC,0.0825
16,AAACCCAA,0.141
17,CAATCACA,0.0365
18,AACAATCA,0.167
19,ACCCGCGC,-0.0888
20,CGACCTAC,0.0718
21,GATGGGGC,-0.131
22,CCAAACTC,-0.114
23,AACGCTCG,0.0271
24,AAAATCGC,0.168
25,CGGGGAAC,-0.124

# Quoted at random: six records from the list
row,Sequence,PBM E-score
23,AACGCTCG,0.0271
20,CGACCTAC,0.0718
13,TGTGTAAA,0.031
5,AGGTGTCA,-0.0121
3,GGGTGCGA,-0.103
14,ATCATAGG,-0.00462

# Additional entries follow.

row,Sequence,PBM E-score
1,CCGTACAG,0.21
2,GGCCTACA,-0.149
3,CTGGGGTA,0.00583
4,GCCCACCC,-0.0706
5,GTTACTAA,0.202
6,CTGTTCGC,-0.0964
7,AATCGCCT,0.0339
8,ATGGCCAT,-0.118
9,ATACCGTA,0.249
10,CTTAGATA,0.148
11,GGGTCTAA,-0.112
12,GTCGGGTA,0.0556
13,GTTGTGAA,0.0499
14,TCCTCTCA,-0.095
15,GATGGAAA,-0.0625
16,ACCAAGTA,0.131
17,ACGGGAAT,0.132
18,CTATTGTC,0.0788
19,ATTTACTA,0.171
20,GTATATGA,0.12
21,ACGGCAGG,0.0975
22,GTTGGAGA,-0.0467
23,CTCTCCCA,-0.061
24,GGGTTCAA,-0.105
25,ATTTTTCG,0.229

row,Sequence,PBM E-score
1,CCGGATAA,0.0285
2,AATAGCTA,0.103
3,GGGGTAGA,-0.0184
4,GCTCTTAA,0.0207
5,CCTGTGAA,-0.0187
6,GTATGGAA,-0.074
7,GATAGTCA,0.247
8,TACACAAA,0.0301
9,CCACCCAG,-0.115
10,AACTACAC,0.0268
11,CCGCCAAA,0.109
12,CATATTCC,-0.229
13,CAGGTACA,-0.0696
14,GGGCTCCA,-0.268
15,ATCTATAA,0.185
16,AAAGCATA,-0.0894
17,CCCTGACG,-0.00862
18,GAACCATC,-0.152
19,CACGCGGA,0.129
20,ATGTACAC,0.0413
21,CCCGGGGC,-0.227
22,AACTCAGT,-0.224
23,GCGGATAA,0.137
24,GACCAAAA,0.183
25,AGCCCTAG,-0.18

row,Sequence,PBM E-score
1,GCTAACCA,-0.0495
2,ATTGGCTG,-0.0632
3,GGATTCAC,-0.0209
4,AGGCCTCC,-0.135
5,CGGCTCAA,-0.00183
6,TCACCTCA,0.21
7,TATTGTAA,0.133
8,CGCCGGGC,-0.161
9,GGAGGCCC,-0.223
10,AAGTCGCT,-0.0265
11,GAGCTTAC,-0.0972
12,CGTGATGA,0.31
13,ATGCTAAT,0.0338
14,CATTAAAA,0.129
15,CTTCGAGC,-0.178
16,AAAATCTC,0.0592
17,ATTCGCCA,0.178
18,GCCAAGAC,-0.122
19,CTGACCAC,-0.102
20,TATCGAGA,0.0688
21,AGAGCAGG,-0.173
22,GGTAGCCA,0.134
